# This is one part of the list. Further columns of the screen follow, without active or inactive calls. Most of these compounds were active or inconclusive in the main read-out, so they are no random draw. Potencies come from curve fits of mixed quality, noted in brackets.
# Test: qHTS Assay to Find Inhibitors of Chronic Active B-Cell Receptor Signaling
# Conditions: ABC-DLBCL IkBa-CBG/CBR reporter, luminescence ratio (green luciferase fused to IkBa over red control in TMD8 lymphoma cells), 4 h
# Outline: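 Concentration-response series (up to 46 uM) were applied to TMD8 dual-reporter cells for 4 h at 37C with doxycycline. Green/red ratio, after filter-overlap correction, defined %Activity; red signal alone was normalised to basal cells and zero luminescence.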
# [1] = measured here: CBR red luminescence, cell number
# [2] = measured here: IkBa-CBG green luminescence
SMILES,AC50 [1],AC50 [2]
CNC(=O)c1[nH]cnc1C(=O)Nc1cccc(OC)c1,"0.58 µM [falling, full curve, poor fit]",–
CCOC(=O)C1=C(COC(=O)COc2ccc(Br)cc2)NC(=O)NC1C (stereo not drawn),"25.9 µM [falling, partial curve, poor fit]",–
O=C(N/N=C/c1ccncc1)c1ccc(-n2cccc2)cc1,"5.8 µM [rising, full curve]",–
CN(/N=C/c1cc(Br)cc(Br)c1O)c1cccc(C(F)(F)F)n1,"2.24 µM [rising, full curve, poor fit]","10 µM [falling, partial curve]"
CC(C)CCNC(=O)c1nn(Cc2ccccc2)c(=O)c2ccccc12,"3.55 µM [falling, single point]",–
O=C(NC1CC1)c1cccc(NC(=O)c2cnn(-c3ccccc3)n2)c1,"11.6 µM [falling, single point]",–
O=C(CCl)NCc1cc(-c2ccc(Cl)cc2)no1,"14.1 µM [falling, partial curve, poor fit]",–
O=C(CCC1CCCC1)NCc1ccccn1,"35.5 µM [rising, single point]",–
COC(=O)C1=C(N)Oc2cc(C)n(CCCn3ccnc3)c(=O)c2C1c1cccc(Cl)c1 (stereo not drawn),"2.31 µM [rising, full curve, poor fit]",–
CC(C)(C)NC(=O)C(c1ccc(O)cc1)N(Cc1ccco1)C(=O)Cn1nnc(-c2cccs2)n1 (stereo not drawn),"0.206 µM [falling, full curve, poor fit]",–
COc1ccc(-c2nc(N=Nc3ccc(O)cc3)n[nH]2)cc1,"25.9 µM [falling, single point]",–
CCN(CC)C(=O)Cn1cc(C(=O)C(=O)NCc2cccs2)c2ccccc21,"0.631 µM [falling, full curve, poor fit]",–
CN(C)CCCOC(=O)c1ccccc1Cl,"10.3 µM [rising, partial curve]",–
O=C(NCCc1c[nH]c2ccccc12)Nc1ccccc1,"18.4 µM [falling, partial curve]",–
O=C(CCCN1C(=O)c2ccccc2C1=O)Nc1ccc2c(c1)OCCO2,"7.08 µM [rising, partial curve, poor fit]",–
Cc1csc(NC(=O)CSc2nnc(-c3ccccc3)o2)n1,"6.51 µM [falling, partial curve]",–
N#Cc1ncc(Cc2ccccc2)nc1C#N,"35.5 µM [falling, single point]",–
O=C(COc1ccccc1[N+](=O)[O-])Nc1cccc(S(=O)(=O)N2CCCC2)c1,"3.66 µM [falling, partial curve, poor fit]",–
Cc1ccccc1-n1c(=O)[nH]c(=O)c2c(N)c(C(=O)c3ccc(Cl)cc3)sc21,"1.3 µM [rising, full curve]",–
Cc1ccsc1C(=O)N/N=C/c1ccc([N+](=O)[O-])cc1,"2.31 µM [falling, full curve]",–
O=C(CNc1cccc(F)c1)N1CCc2ccccc2C1,"3.55 µM [falling, full curve]",–
Cc1cc(NC(=O)CCCN2C(=O)/C(=C\c3cccs3)SC2=S)no1,"13 µM [falling, partial curve]",–

# Some of the entries so far, tab-delimited:
SMILES	AC50 [1]	AC50 [2]
CCN(CC)C(=O)Cn1cc(C(=O)C(=O)NCc2cccs2)c2ccccc21	0.631 µM [falling, full curve, poor fit]	–
CN(C)CCCOC(=O)c1ccccc1Cl	10.3 µM [rising, partial curve]	–
O=C(NCCc1c[nH]c2ccccc12)Nc1ccccc1	18.4 µM [falling, partial curve]	–
O=C(CCCN1C(=O)c2ccccc2C1=O)Nc1ccc2c(c1)OCCO2	7.08 µM [rising, partial curve, poor fit]	–
Cc1csc(NC(=O)CSc2nnc(-c3ccccc3)o2)n1	6.51 µM [falling, partial curve]	–

# (cont.)

SMILES,AC50 [1],AC50 [2]
c1coc(CN(Cc2ccco2)c2ncnc3c2oc2ccccc23)c1,"7.31 µM [falling, partial curve, poor fit]",–
Brc1ccccc1OCCOCCOc1cccc2cccnc12,"2.24 µM [rising, partial curve, poor fit]",–
COc1cc(C(=O)O/N=C(\N)c2cccc([N+](=O)[O-])c2)cc(OC)c1OC,"5.01 µM [rising, partial curve]",–
N#CC1(c2ccccc2)CCC(=NNS(=O)(=O)c2ccccc2)CC1 (stereo not drawn),"1.16 µM [rising, full curve, poor fit]",–
c1ccc2sc(NN=C3CCCCCC3)nc2c1,"11.2 µM [falling, partial curve, poor fit]",–
CC(Sc1nc2ncc(Cl)cc2[nH]1)C(=O)Nc1ccc(C(N)=O)cc1 (stereo not drawn),"16.4 µM [rising, partial curve, poor fit]",–
Cc1cc(C(=O)N/N=C/c2ccc(N(C)C)o2)cs1,"8.91 µM [falling, single point]",–
O=C(Nc1nnc(-c2ccccc2)o1)c1nc2ccccc2s1,"1.78 µM [falling, full curve]",–
O=C(Nc1cccc([N+](=O)[O-])c1)C1C2CC/C=C\CCC21 (stereo not drawn),"35.5 µM [rising, single point]",–
Cc1cccc(-c2nc(CN3CCCC(C(=O)NC4CCC(C)CC4)C3)c(C)o2)c1 (stereo not drawn),"31.6 µM [rising, single point]",–
Cc1ccnc(N=Cc2nc(-c3ccccc3Br)oc2O)c1,"5.62 µM [falling, full curve]",–
CS(=O)(=O)c1ccc(Cl)c(NC(=O)CCN2C(=O)NC3(CCCC3)C2=O)c1,"20.6 µM [rising, single point]",–
Cc1ccc(C2=NN(CC(=O)NCCc3ccc(Cl)cc3)C(=O)CC2)cc1,"22.4 µM [falling, single point]",–
O=[N+]([O-])c1ccc(Oc2cccc3cccnc23)c(Cl)c1,"35.5 µM [rising, partial curve, poor fit]",–
COCCCNc1nc(N)c([N+](=O)[O-])c(N2CCCCCC2)n1,"20 µM [rising, partial curve, poor fit]",–
O=C(Nc1cc(F)ccc1F)c1cc2nc(-c3ccco3)cc(C(F)(F)Cl)n2n1,"20 µM [falling, partial curve, poor fit]",–
CC(Oc1ccccc1)C(=O)N1CCCc2ccccc21 (stereo not drawn),"4.11 µM [rising, full curve]",–
COc1ccccc1OCC(=O)/C=C1/N(C)c2ccccc2C1(C)C,"7.08 µM [falling, full curve, poor fit]",–
COc1cccc(-c2nn(-c3ccccc3)cc2C(=O)O)c1,"17.8 µM [rising, single point]",–
O=C(CN1C(=O)c2ccccc2C1=O)Nc1ccccc1N1CCOCC1,"3.98 µM [falling, single point]",–
Nc1ccc2nc(CN3CCOCC3)[nH]c2c1,"0.517 µM [rising, full curve, poor fit]",–
Cc1ccc(-c2nc(CNC(=O)c3cc(C)on3)cs2)cc1,"12.6 µM [falling, partial curve, poor fit]",–

SMILES,AC50 [1],AC50 [2]
COCCN(CCOC)C(=O)C1CCCN(S(=O)(=O)c2ccc(NC(=O)OC)cc2)C1 (stereo not drawn),"1.41 µM [falling, partial curve, poor fit]",–
Cc1cc(C)c2cc(C(=O)N3CCc4ccccc4C3)[nH]c2c1,"35.5 µM [falling, single point]",–
Cc1ccc(Cl)cc1N1CCN(C(=O)C2CCN(S(=O)(=O)c3ccc4c(c3)oc(=O)n4C)CC2)CC1,"5.62 µM [falling, full curve, poor fit]",–
Cc1ccc(C)c(CSC2=NCCN2C(=O)Cc2ccc([N+](=O)[O-])cc2)c1,–,"23.1 µM [rising, partial curve, poor fit]"
CCCn1c(SCC(=O)Nc2cccc(S(=O)(=O)NC3=NCCCCC3)c2)nc2ccccc2c1=O,"14.1 µM [falling, single point]",–
CN(C)c1cccc(C(=O)Nc2ccc3nc4n(c(=O)c3c2)CCCCC4)c1,"0.0058 µM [rising, full curve, poor fit]",–
Oc1ccccc1C1=NN(c2ccccc2)C(c2ccccc2)C1 (stereo not drawn),"31.6 µM [rising, single point]","35.5 µM [falling, single point]"
C=CCNC(=O)c1ccc(OC)cc1,"0.447 µM [rising, full curve, poor fit]",–
Cc1ccc(NC(=O)CCC(=O)c2cccs2)c(Br)c1,"14.1 µM [rising, single point]",–
O=C(O)C1CC(=O)N(CCc2ccccc2)C1 (stereo not drawn),"16.4 µM [rising, single point]",–
CCCn1nnc(NC(=O)c2ccc(Br)o2)n1,"29.1 µM [rising, single point]",–
CCc1ccc(NC(=O)c2cc(-c3ccc(F)cc3)on2)cc1,"3.55 µM [falling, partial curve, poor fit]",–
CC1=CCC(C(=O)O)(C(=O)N/N=C/c2cccs2)C(c2ccc(Cl)cc2)C1 (stereo not drawn),"16.4 µM [rising, single point]",–
O=C(OCn1ncc(Cl)c(Cl)c1=O)c1ccccc1Cl,"11.2 µM [falling, partial curve]","10 µM [rising, partial curve, poor fit]"
CC(C)(CCl)C(=O)Nc1ccc(OC(F)(F)F)cc1,"15.8 µM [rising, partial curve, poor fit]",–
Cc1nc(-c2ccc(C)c(S(=O)(=O)N3CCC(C(=O)Nc4ccc(Cl)cc4)CC3)c2)no1,"35.5 µM [falling, single point]",–
O=C1CSC2(N1)C1CC3CC(C1)CC2C3 (stereo not drawn),"1 µM [rising, partial curve, poor fit]",–
CCCCCNC(=O)c1ccc2c(c1)nc(C)n2-c1cccc(C)c1,"0.562 µM [rising, partial curve, poor fit]",–
COc1ccccc1-n1cnnc1SCC(=O)N1CCOCC1,"2.24 µM [falling, full curve]",–
CCOc1ccc(CN2CCNC(=O)C2CC(=O)NCc2ccccn2)cc1 (stereo not drawn),"11.2 µM [rising, single point]",–
Clc1ccccc1CN1CCN(/N=C/C=C\c2ccco2)CC1,"12.6 µM [rising, partial curve, poor fit]",–

# — PubChem BioAssay AID493014 (National Center for Advancing Translational Sciences (NCATS), 2011)
